We go through 12 compounds from the M2OR odorant receptor database.

This is a selection; strong and weak results do not stand in their true shares. The calls were merged from several studies; some rest on single wells.

Conditions in all cases: stereoisomer not certain
One assay addresses T1, OR10A5 (Homo sapiens) (UniProt Q9H207).
T1 sequence (whole entry): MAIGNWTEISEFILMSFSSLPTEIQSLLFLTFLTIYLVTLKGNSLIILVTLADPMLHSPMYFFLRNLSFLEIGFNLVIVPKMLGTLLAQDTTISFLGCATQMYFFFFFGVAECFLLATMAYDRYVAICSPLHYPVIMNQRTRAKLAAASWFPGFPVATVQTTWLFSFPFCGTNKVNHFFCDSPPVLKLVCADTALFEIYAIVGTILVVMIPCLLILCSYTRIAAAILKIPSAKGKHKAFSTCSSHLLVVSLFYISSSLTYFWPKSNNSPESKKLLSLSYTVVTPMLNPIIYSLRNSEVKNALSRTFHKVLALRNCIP
The procedure, abridged: (§1)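 Whether a receptor–molecule pair is responsive (active) rests on the original authors' judgment that its measured signal was statistically different from baseline. Pairs without that judgment are non-responsive (inactive). Sources used varied assay methods, commonly transient luciferase assays in mammalian cell lines.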

A further assay concerns the target T2, OR10A6 (Homo sapiens) (UniProt Q8NH74).
T2 sequence (whole entry): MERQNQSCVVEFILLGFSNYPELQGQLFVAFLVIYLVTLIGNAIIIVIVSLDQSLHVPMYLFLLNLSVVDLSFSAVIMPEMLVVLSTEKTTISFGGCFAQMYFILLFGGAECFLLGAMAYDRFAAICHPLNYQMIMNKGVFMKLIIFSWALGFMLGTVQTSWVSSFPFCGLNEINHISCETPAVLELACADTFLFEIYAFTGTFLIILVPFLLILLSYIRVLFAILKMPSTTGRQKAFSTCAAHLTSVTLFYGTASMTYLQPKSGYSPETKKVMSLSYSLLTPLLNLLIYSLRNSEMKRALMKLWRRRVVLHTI
The procedure, abridged: as §1

The next assay concerns the target T3, OR10A7 (Homo sapiens) (UniProt Q8NGE5).
T3 sequence (whole entry): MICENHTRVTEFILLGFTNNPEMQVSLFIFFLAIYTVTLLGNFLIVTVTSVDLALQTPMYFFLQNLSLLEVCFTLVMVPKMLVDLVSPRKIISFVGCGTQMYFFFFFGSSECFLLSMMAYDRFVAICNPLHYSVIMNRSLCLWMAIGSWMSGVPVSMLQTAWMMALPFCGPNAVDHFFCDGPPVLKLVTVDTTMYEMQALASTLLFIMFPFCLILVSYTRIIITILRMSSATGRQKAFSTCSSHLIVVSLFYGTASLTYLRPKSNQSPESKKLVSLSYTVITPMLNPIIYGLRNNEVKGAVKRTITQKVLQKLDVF
The essentials: as §1

The target in the next assay is T4, OR10AG1 (Homo sapiens) (UniProt Q8NH19).
T4 sequence (whole entry): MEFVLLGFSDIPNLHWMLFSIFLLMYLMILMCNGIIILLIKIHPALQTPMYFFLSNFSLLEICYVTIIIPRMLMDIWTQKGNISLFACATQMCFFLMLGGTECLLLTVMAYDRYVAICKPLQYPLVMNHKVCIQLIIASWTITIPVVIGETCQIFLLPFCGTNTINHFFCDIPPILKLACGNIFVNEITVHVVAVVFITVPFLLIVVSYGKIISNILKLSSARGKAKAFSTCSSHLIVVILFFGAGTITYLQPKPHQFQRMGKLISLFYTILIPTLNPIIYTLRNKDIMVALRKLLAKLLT
The essentials:
as §1

Another assay deals with T5, OR10C1 (Homo sapiens) (UniProt Q96KK4).
T5 sequence (whole entry): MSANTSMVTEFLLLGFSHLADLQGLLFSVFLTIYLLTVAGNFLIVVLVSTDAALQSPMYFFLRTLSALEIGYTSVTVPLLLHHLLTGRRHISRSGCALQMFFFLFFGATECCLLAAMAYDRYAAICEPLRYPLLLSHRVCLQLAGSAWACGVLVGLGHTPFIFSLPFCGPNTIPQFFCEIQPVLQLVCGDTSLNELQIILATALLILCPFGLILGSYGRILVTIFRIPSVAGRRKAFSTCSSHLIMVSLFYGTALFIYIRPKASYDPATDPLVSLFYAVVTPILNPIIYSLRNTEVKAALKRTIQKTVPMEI
The essentials:
as §1

The target in another assay is T6, OR10G6 (Homo sapiens) (UniProt Q8NH81).
T6 sequence (whole entry): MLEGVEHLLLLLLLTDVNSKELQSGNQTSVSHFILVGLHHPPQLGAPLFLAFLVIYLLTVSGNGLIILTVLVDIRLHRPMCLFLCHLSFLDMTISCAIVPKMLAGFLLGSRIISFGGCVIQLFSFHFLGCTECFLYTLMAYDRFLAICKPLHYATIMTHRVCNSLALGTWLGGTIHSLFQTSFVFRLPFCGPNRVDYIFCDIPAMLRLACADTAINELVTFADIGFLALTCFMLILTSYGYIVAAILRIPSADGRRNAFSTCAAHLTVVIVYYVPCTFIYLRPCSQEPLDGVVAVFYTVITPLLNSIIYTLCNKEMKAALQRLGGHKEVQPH
The procedure, abridged:
as §1

For a further assay, the target named is T7, OR10G7 (Homo sapiens) (UniProt Q8NGN6).
T7 sequence (whole entry): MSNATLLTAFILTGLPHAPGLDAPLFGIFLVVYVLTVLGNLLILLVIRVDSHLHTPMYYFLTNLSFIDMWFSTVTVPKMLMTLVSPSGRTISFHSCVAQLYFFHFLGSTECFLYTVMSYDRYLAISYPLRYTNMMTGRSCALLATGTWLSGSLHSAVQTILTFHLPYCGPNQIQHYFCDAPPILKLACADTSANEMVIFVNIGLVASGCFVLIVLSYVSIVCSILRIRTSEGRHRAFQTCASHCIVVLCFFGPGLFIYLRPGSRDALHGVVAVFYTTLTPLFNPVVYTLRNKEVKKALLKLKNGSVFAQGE
The essentials:
as §1
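Note: active if original authors judged signal statistically different from baseline.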

As for `CC(=O)OC(C)(C)C1CC=C(C)CC1` (centres undefined), the “odorant receptor agonist call” value with OR10A5 (Homo sapiens) was “active”. Moreover, the “odorant receptor agonist call” value with OR10A6 (Homo sapiens), in the assay with OR10A7 (Homo sapiens), with OR10AG1 (Homo sapiens), with OR10C1 (Homo sapiens), with OR10G6 (Homo sapiens) and in the assay with OR10G7 (Homo sapiens) was “inactive” in each case.

Turning to `CC12CCC(C1)C(C)(C)C2=O` (centres undefined), the “odorant receptor agonist call” value with OR10A5 (Homo sapiens), with OR10A6 (Homo sapiens), with OR10A7 (Homo sapiens), in the assay with OR10AG1 (Homo sapiens), with OR10C1 (Homo sapiens) and with OR10G6 (Homo sapiens) was “inactive” throughout. Besides, the “odorant receptor agonist call” value in the assay with OR10G7 (Homo sapiens) was “active”.

In the case of `CCCCCCOC(=O)CCC`, the “odorant receptor agonist call” value with OR10A5 (Homo sapiens), with OR10A6 (Homo sapiens), with OR10A7 (Homo sapiens), with OR10AG1 (Homo sapiens), with OR10C1 (Homo sapiens) and with OR10G6 (Homo sapiens) was “inactive” each time. Also, the “odorant receptor agonist call” value with OR10G7 (Homo sapiens) is “inactive”.

As for `CC(C)C(=O)O`, the “odorant receptor agonist call” value with OR10A5 (Homo sapiens), with OR10A6 (Homo sapiens), with OR10A7 (Homo sapiens), with OR10AG1 (Homo sapiens), with OR10C1 (Homo sapiens) and with OR10G6 (Homo sapiens) was “inactive” throughout. Also, the “odorant receptor agonist call” value with OR10G7 (Homo sapiens) was “active”.

For `CCCCCC(=O)O`, the “odorant receptor agonist call” value with OR10A5 (Homo sapiens), with OR10A6 (Homo sapiens), with OR10A7 (Homo sapiens), with OR10AG1 (Homo sapiens), with OR10C1 (Homo sapiens) and with OR10G6 (Homo sapiens) was “inactive” in each case. Further, the “odorant receptor agonist call” value with OR10G7 (Homo sapiens) is “inactive”.

As for `CC1=CCC(C(C)(C)O)CC1` (centres undefined), the “odorant receptor agonist call” value with OR10A5 (Homo sapiens) was “active”. Besides, the “odorant receptor agonist call” value with OR10A6 (Homo sapiens), with OR10A7 (Homo sapiens), with OR10AG1 (Homo sapiens), in the assay with OR10C1 (Homo sapiens), with OR10G6 (Homo sapiens) and in the assay with OR10G7 (Homo sapiens) was “inactive” throughout.

Regarding `CC12CCC(CC1)C(C)(C)O2`, the “odorant receptor agonist call” value with OR10A5 (Homo sapiens), with OR10A6 (Homo sapiens), with OR10A7 (Homo sapiens), with OR10AG1 (Homo sapiens), with OR10C1 (Homo sapiens) and in the assay with OR10G6 (Homo sapiens) was “inactive” each time. For the same compound, the “odorant receptor agonist call” value with OR10G7 (Homo sapiens) is “active”.

Turning to `c1ccc(Oc2ccccc2)cc1`, the “odorant receptor agonist call” value with OR10A5 (Homo sapiens), with OR10A6 (Homo sapiens), with OR10A7 (Homo sapiens), with OR10AG1 (Homo sapiens), with OR10C1 (Homo sapiens) and with OR10G6 (Homo sapiens) was “inactive” throughout. Further, in the assay with OR10G7 (Homo sapiens), the “odorant receptor agonist call” value was “inactive”.

Consider `COc1cc(C)ccc1O`, for which the “odorant receptor agonist call” value with OR10A5 (Homo sapiens), in the assay with OR10A6 (Homo sapiens), with OR10A7 (Homo sapiens), in the assay with OR10AG1 (Homo sapiens), with OR10C1 (Homo sapiens) and in the assay with OR10G6 (Homo sapiens) was “inactive” in each case. The “odorant receptor agonist call” value with OR10G7 (Homo sapiens) was “active”.

For `C=CCSCC=C`, the “odorant receptor agonist call” value with OR10A5 (Homo sapiens), in the assay with OR10A6 (Homo sapiens), in the assay with OR10A7 (Homo sapiens), in the assay with OR10AG1 (Homo sapiens), with OR10C1 (Homo sapiens) and in the assay with OR10G6 (Homo sapiens) was “inactive” throughout. For the same compound, in the assay with OR10G7 (Homo sapiens), the “odorant receptor agonist call” value was “inactive”.

As for `CC(C)CC(=O)O`, the “odorant receptor agonist call” value with OR10A5 (Homo sapiens), in the assay with OR10A6 (Homo sapiens), with OR10A7 (Homo sapiens), with OR10AG1 (Homo sapiens), with OR10C1 (Homo sapiens) and with OR10G6 (Homo sapiens) was “inactive” each time. For the same compound, the “odorant receptor agonist call” value with OR10G7 (Homo sapiens) was “active”.

As for `CC1COCc2cc3c(cc21)C(C)(C)C(C)C3(C)C` (centres undefined), the “odorant receptor agonist call” value with OR10A5 (Homo sapiens) is “inactive”. The “odorant receptor agonist call” value with OR10A6 (Homo sapiens), with OR10A7 (Homo sapiens), in the assay with OR10AG1 (Homo sapiens), in the assay with OR10C1 (Homo sapiens), with OR10G6 (Homo sapiens) and with OR10G7 (Homo sapiens) was “active” in each case.
